## Library screening results

Amino acid sequences for entries named in this document (tags omitted).
UniProt E9BF75, entry or part of it: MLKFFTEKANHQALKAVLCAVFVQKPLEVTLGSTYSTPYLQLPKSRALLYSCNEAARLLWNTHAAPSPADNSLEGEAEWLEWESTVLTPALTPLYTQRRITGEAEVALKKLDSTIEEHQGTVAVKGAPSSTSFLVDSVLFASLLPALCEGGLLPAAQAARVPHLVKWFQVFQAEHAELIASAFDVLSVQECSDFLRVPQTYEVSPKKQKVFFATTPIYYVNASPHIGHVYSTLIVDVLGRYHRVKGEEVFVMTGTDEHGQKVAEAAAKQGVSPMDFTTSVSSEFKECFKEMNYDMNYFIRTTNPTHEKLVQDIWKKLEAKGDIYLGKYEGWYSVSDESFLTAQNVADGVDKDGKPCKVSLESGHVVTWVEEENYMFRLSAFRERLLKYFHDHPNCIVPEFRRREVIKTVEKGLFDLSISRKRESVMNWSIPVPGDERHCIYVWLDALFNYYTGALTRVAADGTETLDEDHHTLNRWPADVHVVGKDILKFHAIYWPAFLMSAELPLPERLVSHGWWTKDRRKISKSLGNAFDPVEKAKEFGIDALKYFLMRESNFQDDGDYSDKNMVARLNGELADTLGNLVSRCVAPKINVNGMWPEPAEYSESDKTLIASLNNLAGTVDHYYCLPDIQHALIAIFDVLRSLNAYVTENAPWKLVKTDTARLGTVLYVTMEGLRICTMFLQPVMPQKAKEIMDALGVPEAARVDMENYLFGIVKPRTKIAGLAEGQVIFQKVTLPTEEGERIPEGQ

The values are deposited in ChEMBL (CHEMBL3988442, “University of Dundee, Small-Polar-MMV Screening Library” (2021)).

LdMetRS: 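Methionyl-tRNA synthetase (putative), Leishmania donovani (UniProt E9BF75). Primary screen of methionyl-tRNA synthetase; the read-out is not stated. The test concentration is not given. Values are per cent inhibition. Of about 68,000 compounds tested this way, about 24 (0.035%) reached 50% or more in at least one test.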
Mtb heat-shock: 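Assay on Mycobacterium tuberculosis, filed only as a heat shock assay from Cornell; the read-out is not stated. The concentration is filed as 10 mM, unlikely as a test dose, so the dose is not known. Higher reads as stronger inhibition (inferred: compounds with an IC50 in retests scored well above the rest). Of about 69,000 compounds tested this way, about 930 (1.4%) reached 50% or more in at least one test.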

All values are in %.
The record does not define 0% and 100%; most values in the screen are far below 50% and negative numbers occur (in some assays of this library far below -100).
The compounds are a random part of those screened.
A dash means the value is not listed here; it may have been measured.

* CCC(=O)N1CCC2(CC1)CC(Oc1ccccc1)CO2 (configuration not stated) : LdMetRS: 6.767%; Mtb heat-shock: -24.15%
* CC(c1nc(C2CC2)no1)N(C)Cc1cccc(F)c1 (configuration not stated) : LdMetRS: 7.258%; Mtb heat-shock: -20.52%
* Cc1ccc(N2CCCc3sc(C(=O)NCc4ccncc4)nc32)nn1 : LdMetRS: 3.008%; Mtb heat-shock: -6.961%
* CC(C)OCCS(=O)(=O)N1CCN(Cc2cccn2C)CC1 : LdMetRS: 7.599%; Mtb heat-shock: -0.5583%
* CN(C)[C@@H]1CO[C@H](CNC(=O)C2CCCC2)[C@H]1O : LdMetRS: 2.373%; Mtb heat-shock: -18.61%
* CCn1ccnc1C1CCCN(C(=O)c2sc(C)nc2C)C1 (configuration not stated) : LdMetRS: 14.72%; Mtb heat-shock: 13.54%
* CCc1n[nH]c(C2CN(C(=O)c3ccc4c(c3)COC4)CCO2)n1 (configuration not stated) : LdMetRS: 13.26%; Mtb heat-shock: -6.372%
* O=C(c1ccc[nH]1)N1CCOCC2(CCN(C3CCOCC3)C2)C1 (configuration not stated) : LdMetRS: 3.17%; Mtb heat-shock: -28.14%
* CNC(=O)C1(CCCc2cccnc2)CCCCN1 (configuration not stated) : LdMetRS: 11.99%; Mtb heat-shock: 0.7644%
* O=C(O)C(F)(F)F.[H][C@]12CN(Cc3cccnc3)C(=O)[C@@]1([H])CN(S(=O)(=O)C1CC1)C2 : Mtb heat-shock: -22.76%
* Cc1nc(N2CCCC2)nc2c1CCN(Cc1nccn1C)CC2.O=C(O)C(F)(F)F : Mtb heat-shock: -10.58%
* CC(C)CN1CCN(S(=O)(=O)c2cn(C)cn2)[C@H]2CS(=O)(=O)C[C@H]21 : LdMetRS: 4.194%
* Cc1cc(C(=O)NCCc2nc3c(s2)CCCC3)n(C)n1 : LdMetRS: 7.736%; Mtb heat-shock: 8.032%
* N#Cc1c(-c2ccccc2)csc1N : LdMetRS: 8.788%; Mtb heat-shock: -2.165%
* CCCC(=O)NC1CCCN(c2nc3ccccc3cc2CO)C1 (configuration not stated) : LdMetRS: 9.059%; Mtb heat-shock: 17.11%
* COc1ccc2[nH]cc(-c3ccnc(NC4CCCC4)n3)c2c1 : LdMetRS: 24.03%; Mtb heat-shock: 25.68%
* Cc1ccc(-c2nc(CN3CCCC(C(=O)N(C)C)C3)cs2)o1 (configuration not stated) : LdMetRS: 19.77%; Mtb heat-shock: -0.4325%
* CC(=O)N1CCN(Cc2cccs2)CC2(CC(=O)N(C)C2)C1 (configuration not stated) : LdMetRS: 16.35%
* Cc1cnn(-c2cccc(N3CCN(c4cc(C)nc(C)n4)CC3)n2)c1 : LdMetRS: 6.183%; Mtb heat-shock: 7.456%
* O=C(O)CC(O)(CC(=O)O)C(=O)O.c1ccc([C@@H]2CN(Cc3cccnc3)C[C@H]2c2cc[nH]n2)cc1 : Mtb heat-shock: -3.502%
* Cc1cccc2c1nc1n2[C@@H](CNC(=O)c2cnccn2)COC1 : LdMetRS: 9.153%; Mtb heat-shock: -20.19%
* Cc1ccc(N2C[C@H]3OCC[C@H]3[C@H](C(=O)NC3CCCC3)C2)nn1 : LdMetRS: 8.571%
* O=c1cc(-c2ccccc2)nc2n1CCCCC2 : LdMetRS: 3.927%; Mtb heat-shock: -23.35%
* O=C(NCCc1ccccn1)[C@@]12CCO[C@@H]1CCN(CC1CC1)C2 : LdMetRS: 14.57%
* c1cc(CN2CCCn3cnc(COCC4CC4)c3C2)co1 : LdMetRS: 12.64%
* Cc1cccc(S(=O)(=O)N2CC[C@H]3[C@H]2CCN3c2ncccn2)c1 : LdMetRS: 16.67%
* CCC1CN(Cc2cccc(C(=O)N(C)C)c2)CCN1CCOC (configuration not stated) : LdMetRS: 22.25%; Mtb heat-shock: -19.01%
* COCCN1CCC(CNC(=O)C2(c3ccccc3)CCC2)C1 (configuration not stated) : LdMetRS: 10.89%; Mtb heat-shock: -2.443%
* CS(=O)(=O)NC1CCCN(C(=O)NCc2ccoc2)C1 (configuration not stated) : LdMetRS: 25.97%; Mtb heat-shock: 13.21%

3 of the entries, repeated:

compound	LdMetRS	Mtb heat-shock
O=C(NCCc1ccccn1)[C@@]12CCO[C@@H]1CCN(CC1CC1)C2	14.57	-
CCn1ccnc1C1CCCN(C(=O)c2sc(C)nc2C)C1 (configuration not stated)	14.72	13.54
CN(C)[C@@H]1CO[C@H](CNC(=O)C2CCCC2)[C@H]1O	2.373	-18.61